PubChem BioAssay AID652259 – Drosophila RNAi Screening Center, 2013
In all, the deposit lists about 22,000 reagents; below is an unselected part of those that have a named target and a result. In the full data, 233 (1.1%) got an active call. 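Light values are raw, unnormalised plate reads; the ratio scores behind the reporter calls were not deposited.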 The numbers tell different reagents against one gene apart. A plus sign joins genes that one reagent is predicted to hit. The record does not give: the amount of reagent, the time to read-out, the dose of the treatment.

Purpose: 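Genome-wide hunt for genes that control Wingless pathway activity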 (primary screen)
System: Drosophila clone 8 imaginal disc epithelial cells
Knock-down reagent: long dsRNA against Drosophila genes
Treatment: pathway stimulated by co-transfected Wingless expression plasmid
Measured: 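Dual luciferase reads per well after Wingless plasmid stimulation: reporter firefly light and Renilla control light; activity is firefly divided by Renilla, a ratio not deposited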
Direction: firefly reporter light: higher = more Wg reporter light, before normalisation; Renilla control light: higher = more transfected or surviving cells
Rule for the call: 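Strong candidates differ from their plate mean by at least two out of four per-plate statistical tests; weak candidates meet just one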
Calls: active = candidate regulator (raises or lowers reporter); inactive = not a candidate

CG10737 (GeneID 37202): firefly reporter light, replicate 1 = 11413; Renilla control light, replicate 1 = 3562; activity call = inactive
CG12849 (GeneID 37971): firefly reporter light, replicate 1 = 3364; firefly reporter light, replicate 2 = 8064; Renilla control light, replicate 1 = 770; Renilla control light, replicate 2 = 2592; activity call = inactive
MCU (GeneID 59223): firefly reporter light, replicate 1 = 1405; firefly reporter light, replicate 2 = 8343; Renilla control light, replicate 1 = 1088; Renilla control light, replicate 2 = 3517; activity call = inactive
CG16956 (GeneID 34760): firefly reporter light, replicate 1 = 2215; firefly reporter light, replicate 2 = 5299; Renilla control light, replicate 1 = 1045; Renilla control light, replicate 2 = 2422; activity call = inactive
Cdk5 (GeneID 36727): firefly reporter light, replicate 1 = 9452; Renilla control light, replicate 1 = 3702; activity call = inactive
Coa7 (GeneID 3355158): firefly reporter light, replicate 1 = 19248; Renilla control light, replicate 1 = 10185; activity call = inactive
CG8517 (GeneID 37268): firefly reporter light, replicate 1 = 8185; Renilla control light, replicate 1 = 3157; activity call = inactive
CG42557 + CG42558 #1: firefly reporter light, replicate 1 = 3173; Renilla control light, replicate 1 = 2226; activity call = inactive
CG42557 + CG42558 #2: firefly reporter light, replicate 1 = 3658; firefly reporter light, replicate 2 = 3168; Renilla control light, replicate 1 = 883; Renilla control light, replicate 2 = 1184; activity call = inactive
ptc (GeneID 35851) #1: firefly reporter light, replicate 1 = 20919; Renilla control light, replicate 1 = 11045; activity call = inactive
ptc (GeneID 35851) #2: firefly reporter light, replicate 1 = 5152; firefly reporter light, replicate 2 = 8931; Renilla control light, replicate 1 = 1537; Renilla control light, replicate 2 = 3802; activity call = inactive
L2HGDH (GeneID 35156): firefly reporter light, replicate 1 = 9447; Renilla control light, replicate 1 = 2646; activity call = inactive
CG9399 (GeneID 41157): firefly reporter light, replicate 1 = 14468; Renilla control light, replicate 1 = 2358; activity call = inactive
Sans (GeneID 36427): firefly reporter light, replicate 1 = 13512; Renilla control light, replicate 1 = 3884; activity call = inactive
eEF1alpha2 (GeneID 43736) #1: firefly reporter light, replicate 1 = 3177; Renilla control light, replicate 1 = 1537; activity call = inactive
eEF1alpha2 (GeneID 43736) #2: firefly reporter light, replicate 1 = 13520; Renilla control light, replicate 1 = 10592; activity call = inactive
ben (GeneID 32358) #1: firefly reporter light, replicate 1 = 2277; firefly reporter light, replicate 2 = 8316; Renilla control light, replicate 1 = 947; Renilla control light, replicate 2 = 2265; activity call = inactive
ben (GeneID 32358) #2: firefly reporter light, replicate 1 = 24029; Renilla control light, replicate 1 = 9910; activity call = inactive
